These are yes or no findings as the source states them, for the method shown. In cells and extracts the contact can be indirect. These calls come from enrichment with a bait or labelling near it, and not all partners need be listed.
Each molecule was assayed against mCherry-ATG8E (Arabidopsis thaliana) (UniProt Q8S926) (assay: affinity purification with mass spectrometry; mCherry-ATG8E as bait on RFP-Trap magnetic agarose beads; S4, P4 and P4 + proteinase K fractions from differential centrifugation of 7-d-old seedlings treated with 3 uM Torin 1 for 90 min; 0.1% Nonidet P-40/Igepal added; mCherry alone as control).

By UniProt entry, the sequences of proteins in these tests, tags left out. Where a name states a change or a piece, a line headed by the entry shows the natural chain unless it says otherwise. Residues count along the entry.
UniProt Q8S926, residues 1-118: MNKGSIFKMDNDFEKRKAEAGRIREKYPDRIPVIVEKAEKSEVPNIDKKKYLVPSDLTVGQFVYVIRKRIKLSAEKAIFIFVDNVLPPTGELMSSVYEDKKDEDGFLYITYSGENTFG
UniProt F4JM19: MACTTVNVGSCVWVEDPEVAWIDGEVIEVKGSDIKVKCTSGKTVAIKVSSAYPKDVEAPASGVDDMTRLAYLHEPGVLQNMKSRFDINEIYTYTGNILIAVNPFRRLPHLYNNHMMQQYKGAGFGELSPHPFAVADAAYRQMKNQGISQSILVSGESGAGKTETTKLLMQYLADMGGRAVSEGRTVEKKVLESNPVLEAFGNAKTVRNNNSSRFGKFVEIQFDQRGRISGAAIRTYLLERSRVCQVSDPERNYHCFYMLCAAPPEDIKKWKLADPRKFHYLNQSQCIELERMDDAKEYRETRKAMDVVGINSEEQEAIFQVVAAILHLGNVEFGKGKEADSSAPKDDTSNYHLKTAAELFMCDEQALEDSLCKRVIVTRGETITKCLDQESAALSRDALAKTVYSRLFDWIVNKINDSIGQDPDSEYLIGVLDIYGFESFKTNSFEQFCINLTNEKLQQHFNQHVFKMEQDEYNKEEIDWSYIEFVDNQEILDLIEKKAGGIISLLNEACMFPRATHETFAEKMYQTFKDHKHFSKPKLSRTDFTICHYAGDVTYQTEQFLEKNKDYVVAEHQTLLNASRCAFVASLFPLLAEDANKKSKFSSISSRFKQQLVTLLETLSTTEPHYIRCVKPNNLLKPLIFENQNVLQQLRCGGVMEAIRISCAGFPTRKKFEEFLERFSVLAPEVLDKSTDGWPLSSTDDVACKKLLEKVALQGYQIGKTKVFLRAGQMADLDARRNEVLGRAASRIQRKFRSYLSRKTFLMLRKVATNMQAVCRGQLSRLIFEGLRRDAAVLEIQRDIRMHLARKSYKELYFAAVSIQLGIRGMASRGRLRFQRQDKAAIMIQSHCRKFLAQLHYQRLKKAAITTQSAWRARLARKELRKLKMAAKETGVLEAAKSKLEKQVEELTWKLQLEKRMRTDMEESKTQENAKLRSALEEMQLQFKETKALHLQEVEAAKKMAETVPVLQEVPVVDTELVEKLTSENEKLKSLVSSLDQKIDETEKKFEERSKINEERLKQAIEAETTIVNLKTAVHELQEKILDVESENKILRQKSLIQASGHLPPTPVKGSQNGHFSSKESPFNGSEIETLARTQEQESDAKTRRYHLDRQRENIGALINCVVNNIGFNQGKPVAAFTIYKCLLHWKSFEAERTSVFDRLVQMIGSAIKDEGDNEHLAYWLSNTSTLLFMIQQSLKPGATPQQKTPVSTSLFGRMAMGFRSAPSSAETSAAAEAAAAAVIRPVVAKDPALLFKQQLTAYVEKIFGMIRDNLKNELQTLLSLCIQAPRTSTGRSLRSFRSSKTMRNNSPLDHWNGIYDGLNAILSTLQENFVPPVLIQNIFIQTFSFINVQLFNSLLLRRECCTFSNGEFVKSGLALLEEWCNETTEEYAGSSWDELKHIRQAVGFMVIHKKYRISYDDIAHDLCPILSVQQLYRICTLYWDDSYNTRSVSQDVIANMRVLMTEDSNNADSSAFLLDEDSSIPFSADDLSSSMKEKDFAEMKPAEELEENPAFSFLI
UniProt Q9LXL1: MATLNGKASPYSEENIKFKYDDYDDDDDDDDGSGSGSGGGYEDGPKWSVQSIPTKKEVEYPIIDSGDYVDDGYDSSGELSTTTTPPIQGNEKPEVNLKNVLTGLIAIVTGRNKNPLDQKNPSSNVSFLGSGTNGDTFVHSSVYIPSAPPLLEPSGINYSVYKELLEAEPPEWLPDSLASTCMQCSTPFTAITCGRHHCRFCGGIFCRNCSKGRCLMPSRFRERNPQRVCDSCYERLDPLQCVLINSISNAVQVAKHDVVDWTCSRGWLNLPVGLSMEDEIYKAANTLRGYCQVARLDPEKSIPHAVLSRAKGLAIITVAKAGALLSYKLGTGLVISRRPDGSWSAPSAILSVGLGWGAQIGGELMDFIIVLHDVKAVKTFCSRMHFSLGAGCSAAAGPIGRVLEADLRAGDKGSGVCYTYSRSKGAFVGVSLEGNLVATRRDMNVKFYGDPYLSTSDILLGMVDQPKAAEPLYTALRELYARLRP

Row | binding | Molecule
1 | binds | NUP93A (protein, UniProt O22224 1-861) MANDQEMSGWTDLLHSSSKLLEQAAPSSQFPPLQRNLDQLEALSKKLKAKTLRNEAPSQSIAATRLLAREGINAEQLARDLKSFELKTTFEDVFPAEATSVEEYLQQVHEMAMVSAIQEAQKDNVRSFNDYMMKVLEEDWRKEKRDFLQSLSRISMLPKTNMIDTSREAHAGQLVPVGSSPRVSSTPGKELVALANIPIHEKKAYVYGEVVKKLNTSRERGMPFRPAMCFKDAYDTLGAEVTRGKSVNMQKIWQLVQAITGEDSAVRQGVSKRMALAIGARHHLQHGHEKFIMDTIQTHPTQAALGGSVGNLQRIRAFLRIRLRDYGVLDFDSTDARRQPPVDTTWQQIYFCLRTGYYEEAREIARSTRSSQQFAPLLTEWITTDGMVAAESAAIASEECEKMLRMGDRLGRTAYDKKKLLLYTIISGSRRQIERILRDLSTLFNTIEDFLWFKLSCIRDVTGGSSSVVLNDGLAPYSLDDLQAYLNKFEPSYYTKNGKDPLVYPYVLLLSVQLLPAIMHLSKEAGDGGYNIDAVHIAISLVDHSVLSEGSGTGHKLSVMDSNAEASSMIRQYGSMFLHHGDLQMTVEYYAQAAATVGGGQLAWSGRSNVDQQRQRNLMLKQLLTEILLRERGIYFLLGARGSGEEGQLGRFFPDSRLRQQFLVEAAHQCQEAGLYDKSIELQKRVGAFSAALETINKCLSEAICSLARGRLDGESRTSGLILAGNDILETYKYYPEVSLQERERVMEQETILRELEAILSIHKLGRLGNHLDALREIAKLPFLHLDPRMPDATADVFQSASPYFQTCVPDLLKVALTCLDNVPDTDGSIRAMRSKIAGFLASNTHRNWPRDLYEKVARSF
2 | binds | SH3P2 (protein, UniProt Q8VWF1 1-368) MDAIRKQASRLREQVARQQQAVFKQFGGGGYGSGLADEAELNQHQKLEKLYISTRAAKHYQRDIVRGVEGYIVTGSKQVEIGTKLSEDSRKYGSENTCTNGNVLTRAALNYGRARAQMEKERGNMLKALGTQVAEPLRAMVLGAPLEDARHLAQRYDRMRQEAEAQATEVARRQAKARESQGNPDILMKLESAEAKLHDLKSNMTILGKEAASALASVEDQQQKLTLERLLSMVESERAYHQRVLQILDQLEGEMVSERQRIEAPSTPSSADSMPPPPSYEEANGVFASQMHDTSTDSMGYFLGEVLFPYHGVTDVELSLSTGEYVVVRKVTGSGWAEGECKGKAGWFPYGYIERRERVLASKVSEVF
3 | binds | NUP98A (protein, UniProt Q8RY25 1-1041) MFGSSNPFGQSSGTSPFGSQSLFGQTSNTSSNNPFAPATPFGTSAPFAAQSGSSIFGSTSTGVFGAPQTSSPFASTPTFGASSSPAFGNSTPAFGASPASSPFGGSSGFGQKPLGFSTPQSNPFGNSTQQSQPAFGNTSFGSSTPFGATNTPAFGAPSTPSFGATSTPSFGASSTPAFGATNTPAFGASNSPSFGATNTPAFGASPTPAFGSTGTTFGNTGFGSGGAFGASNTPAFGASGTPAFGASGTPAFGASSTPAFGASSTPAFGASSTPAFGGSSTPSFGASNTSSFSFGSSPAFGQSTSAFGSSAFGSTPSPFGGAQASTPTFGGSGFGQSTFGGQQGGSRAVPYAPTVEADTGTGTQPAGKLESISAMPAYKEKNYEELRWEDYQRGDKGGPLPAGQSPGNAGFGISPSQPNPFSPSPAFGQTSANPTNPFSSSTSTNPFAPQTPTIASSSFGTATSNFGSSPFGVTSSSNLFGSGSSTTTSVFGSSSAFGTTTPSPLFGSSSTPGFGSSSSIFGSAPGQGATPAFGNSQPSTLFNSTPSTGQTGSAFGQTGSAFGQFGQSSAPAFGQNSIFNKPSTGFGNMFSSSSTLTTSSSSPFGQTMPAGVTPFQSAQPGQASNGFGFNNFGQNQAANTTGNAGGLGIFGQGNFGQSPAPLNSVVLQPVAVTNPFGTLPAMPQISINQGGNSPSIQYGISSMPVVDKPAPVRISSLLTSRHLLHRRVRLPARKYRPGENGPKVPFFTDDEESSSTPKADALFIPRENPRALVIRPVQQWSSRDKSILPKEQRPTAPLHDNGKSPDMATDAANHDRNGNGELGATGERIHTSVNANQKPNGTTRSDQASEKERPYKTLSGHRAGEAAIVYEHGADIEALMPKLRQSDYFTEPRIQELAAKERADPGYCRRVRDFVVGRHGYGSIKFMGETDVRRLDLESLVQFNTREVIVYMDESKKPAVGQGLNKPAEVTLLNIKCIDKKTGKQFTEGERVEKYKMMLKKKAEAQGAEFVSFDPVKGEWKFRVEHFSSYKLGDEDEEDGV

Further lines, the molecule ahead of its results:

Row | Molecule | binding
4 | Myosin 14 (from UniProt F4JM19 1-1516) | binds
5 | CFS1 (cell death related endosomal FYVE/SYLF protein 1), endogenous (from UniProt Q9LXL1) | binds
6 | FRA3 (protein, UniProt Q84W55 1-1101) MEDRQNDQNDDVFSFFSPSFSAATPSTLFNRSAYSSSSSSGDDESQPSVDDSNKRIDYMIQFLDRRLSEDGNHDGIGDGNGSDSLPEFVGKCGESGIFKVPIRSAVHPNRPPSLDVRPHPLRETQIGRFLRTMTSTERQLWTGGEDGALRVWEFSELYGSGRGLEVEDTAPYKESLGNEFGSAAVVCMIGDEGSRVVWSGHRDGRIRCWRLRGDHGIEEALSWQAHRGPVLSIAISAYGDIWSGSEGGALKVWPWDGALGKSLSLKMEERHMAALAVERSYIDPRNMVSANGFANTLTSDVTFLVSDHTRARVWSASPLTFAIWDARTRDLIKVFNIDGQLENRPENSVYPDFGSEEEGKMKVTASKKEKAQSSLGFFQRSRNAIMGAADAVRRAATKGGFCDDSRKTEAIVISVDGMIWTGSSNGILMRWDGNGNCLQEFAYESSGILCMFTFCSRLWVGYSNGTVQVWDLEGKLLGGWVAHSGPVIKMAIGAGYLFTLANHGGIRGWNVTSPGPLDNVLRAELAGKEFLYSRIENLKILAGTWNVGEGRASTDSLVSWLGCAATGVEIVVVGLQEVEMGAGVLAMSAAKETVGLEGSPLGQWWLDMIGKTLDEGSSFVRVGSRQLAGLLICVWVRHDLKPHVGDVDAAAVPCGFGRAIGNKGAVGVRLRMYDRVLCFVNCHFAAHLEAVNRRNADFDHVYRTMTFSRQSSSLNAGVAGASFGVTMPRGGNALGVNTIEARPELSEADMVIFLGDFNYRLDDITYDETRDFISQRCFDWLREKDQLHTEMEAGNVFQGMREAIIRFPPTYKFERHQAGLAGYDSGEKKRIPAWCDRILYRDNKKHLGAECSLDCPVVSSISQYDACMEVTDSDHKPVRCVFSVKIARVDESVRRQEYGNIINSNKKIKVLLGELSKVPETIVSTNNIILQNQDSTILRITNKSEKNIAFFKIICEGQSKIEEDGQAHDHRARGSFGFPQWLEVSPGTGTIKPNQIAEVSVHLEDFPTVEEFVDGVAQNSWCEDTRDKEVILVLVVHGRFSTETRKHRIRVRHCPRGGPAKNHFNDGTKTSGQINALHRSDYHQLSNTLDVVEQLKNLHSP | binds
